Each structure is given as a SMILES string.

This data set can be described thus: Promiscuity Index of the hits (Table 5).

On to `CCCCCCCC(=O)Nc1ccc(C(=O)Nc2ccc(O)c(C(=O)O)c2)cc1` [SR-01000507444-1], for which the “Promiscuity Index” value is on record as 2 out of 45.

Regarding `CC(C)[C@@H](CO)Nc1ccc2ncc(-c3cccc(Cl)c3)n2n1` [SR-01000383396-1], the “Promiscuity Index” value is given as 2 out of 45. The result for `Fc1ccccc1CSc1nnnn1-c1ccccc1F` [SR-01000432842-1] reads 1 out of 45; that for `COc1ccc(C2CC(=O)C3=C(C2)NC(C)=C(C(=O)OC(C)C)C3c2ccccc2OC(C)C)cc1` (stereo not shown) [SR-01000422384-1], 2 out of 45; that for `CCC(c1nnnn1CCC(C)C)N1CCN(C(=O)c2ccco2)CC1` (stereo not shown) [SR-01000340422-1], 1 out of 45. On to `O=C(Cc1ccc(Br)cc1)N1CCC(c2nc(O)c3cnccc3n2)C1.O=C(O)C(F)(F)F` (stereo not shown) [SR-00000005455-1], for which the “Promiscuity Index” value was 2 out of 41. Regarding `CCOC(=O)c1sc2ncn(CC(=O)NCCC3=CCCCC3)c(=O)c2c1C` [SR-01000119175-1], the “Promiscuity Index” value was 1 out of 45. For `Cc1nc(C(C)NC(=O)c2cc(COc3ccc(F)cc3F)on2)cs1` (stereo not shown) [SR-01000168282-1] the value was 1 out of 45; for `CCSCCOC(=O)C1=C(C)NC2=C(C(=O)CCC2)C1c1ccc(Br)cc1` (stereo not shown) [SR-01000422432-1], 2 out of 45; for `Cn1nc(CC(=O)Nc2ccc(F)c(Cl)c2)c2ccccc2c1=O` [SR-01000589827-1], 1 out of 45. Take `C/C(=N\Nc1cccc(C(F)(F)F)c1)C1CC1` [SR-01000041073-1]: the “Promiscuity Index” value is on record as 3 out of 45. With `Cc1ncn(-c2ccc(Nc3cc(-c4nocc4-c4ccccn4)ccn3)cc2)n1.O=C(O)C(F)(F)F` [SR-00000006872-1], the “Promiscuity Index” value is 1 out of 36. As for `CN(C)CC[S+]([O-])c1cc(-c2cn[nH]c2)ccc1NC(=O)[C@@H]1Cc2cc(F)ccc2CN1.O=C(O)C(F)(F)F` (stereo partly shown) [SR-00000005398-1], the “Promiscuity Index” value is given as 3 out of 41. Consider `CCC(C)OC(=O)C1=C(C)NC2=C(C(=O)CC(c3ccc(Cl)cc3)C2)C1c1cccc(Cl)c1` (stereo not shown) [SR-01000422821-1], for which the “Promiscuity Index” value is on record as 2 out of 45. For `CC1=C(C(=O)OC(C)C)C(c2ccncc2)C2=C(CC(c3ccccc3)CC2=O)N1` (stereo not shown) [SR-01000217822-2], the “Promiscuity Index” value is on record as 2 out of 45.

Regarding `CCC(C)OC(=O)C1=C(C)NC2=C(C(=O)CC(c3ccccc3)C2)C1c1cccc2ccccc12` (stereo not shown) [SR-01000423185-1], the “Promiscuity Index” value was 2 out of 45.

`COc1cc(-c2ccnc(N)n2)ccc1NC(=O)[C@H]1COc2ccccc2O1.O=C(O)C(F)(F)F` [SR-00000003239-1]: the “Promiscuity Index” value is 2 out of 41.

With `Cc1cccc(NC(=O)N2CCC(c3nnc(C4CC4)s3)CC2)c1` [SR-01000922889-1], the “Promiscuity Index” value was 1 out of 17. On to `COc1ccc(COC(=O)C2=C(C)NC3=C(C(=O)CC(C)(C)C3)C2c2ccccc2)cc1` (stereo not shown) [SR-01000427708-1], for which the “Promiscuity Index” value is on record as 2 out of 45. With `COCCOC(=O)C1=C(C)NC2=C(C(=O)CC(c3ccccc3)C2)C1c1ccc(OCc2ccccc2)cc1` (stereo not shown) [SR-01000422392-1], the “Promiscuity Index” value is given as 1 out of 45. The result for `COc1cccc(/C=N/c2cnn(C)c2C(N)=O)c1O` [SR-01000314216-1] reads 1 out of 45; that for `COc1ccccc1C1C(C(=O)OC2CCCC2)=C(C)NC2=C1C(=O)CC(c1ccccc1)C2` (stereo not shown) [SR-01000422836-1], 1 out of 45.

On to `COc1ccccc1-c1ccc(=O)n(CC(=O)Nc2ccc(C(=O)N3CCCC3)cc2)n1` [SR-01000332536-1], for which the “Promiscuity Index” value is given as 1 out of 45. The result for `CCN(CC)c1ccc2cc(-c3ccccn3)c(=O)oc2c1` [SR-01000033354-1] reads 13 out of 45; that for `COc1ccccc1-c1ccc(N2CCN(C(=O)COc3ccccc3)CC2)nn1` [SR-01000920770-1], 2 out of 17. For `O=C(Nc1ccc2c(c1)OCO2)N1CCC(c2nnc(C3CC3)s2)CC1` [SR-01000922885-1] the value was 1 out of 17. For the molecule `CCOC(=O)C1CCN(C(=O)Nc2ccc(NC(=O)C3CCN(C(=O)OCC)CC3)cc2)CC1` [SR-01000451467-1], the “Promiscuity Index” value is given as 1 out of 45.

In the case of `CCOC(=O)C1=CN(Cc2ccc(OC)cc2)C=C(C(=O)OCC)C1c1ccccc1OCc1ccccc1` [SR-01000587933-1], the “Promiscuity Index” value is on record as 1 out of 45. In the case of `CCN(Cc1ccccc1)C(=O)c1cc2c(=O)n3cccc(C)c3nc2n1C` [SR-01000140943-1], the “Promiscuity Index” value is listed as 2 out of 45. For the molecule `CCSc1nnc(C2CCN(CC(=O)Nc3cccc4ccccc34)CC2)n1C` [SR-01000349710-1], the “Promiscuity Index” value is 1 out of 45.

For the molecule `CCS(=O)(=O)NCC(c1cccs1)S(=O)(=O)c1ccc(C)cc1` (stereo not shown) [SR-01000023127-1], the “Promiscuity Index” value is recorded as 2 out of 45. The result for `COc1ccc(N2C(=O)CC(SCCN)C2=O)cc1` (stereo not shown) [SR-01000428800-1] reads 1 out of 45; that for `COc1ccc(OC)c(/C=C2/N=C(c3cccc([N+](=O)[O-])c3)OC2=O)c1` [SR-01000414795-1], 1 out of 45; that for `CCN(CC)c1ccc2cc(-c3nc(C)cs3)c(=O)oc2c1` [SR-01000312020-1], 13 out of 45. Turning to `CCN1C(=O)c2cccc3c(N4CCCC4)ccc(c23)C1=O` [SR-01000221568-1], the “Promiscuity Index” value is reported as 15 out of 45. As for `CC(C)c1ccc(Nc2nccn3c(-c4ccoc4)cnc23)cc1` [SR-01000376943-1], the “Promiscuity Index” value is on record as 2 out of 44.

As for `NC(c1nc2cc(-c3ccncc3)cnc2[nH]1)c1ccc(F)cc1F.O=C(O)C(F)(F)F` (stereo not shown) [SR-00000003416-1], the “Promiscuity Index” value was 2 out of 41. Consider `CSc1ccccc1C(=O)Nc1nc2nc(C)cc(C)c2s1` [SR-01000917298-1], for which the “Promiscuity Index” value was 1 out of 17. Consider `Cc1cc(OCC(=O)Nc2ccc3oc(-c4ccccc4Br)nc3c2)cc(C)c1Cl` [SR-01000421466-1], for which the “Promiscuity Index” value is 1 out of 45. For `O=c1c2cnn(-c3ccccc3)c2nnn1Cc1cccnc1` [SR-01000355082-1] the value was 1 out of 45. The result for `CCCOc1ccc(C2C(C(=O)OC)=CN(CCOC)C=C2C(=O)OC)cc1` [SR-01000259436-1] reads 1 out of 45; that for `Cc1ccc(-c2nnc(N3CCN(C(=O)c4ccco4)CC3)c3ccccc23)cc1` [SR-01000505133-1], 2 out of 45. On to `CC(NC(=O)c1cnc2ccccn12)c1ccc(F)cc1` (stereo not shown) [SR-01000378746-1], for which the “Promiscuity Index” value is 2 out of 46.

Turning to `COc1cccc(C=O)c1OC(=O)c1cccc(Cl)c1` [SR-01000242625-1], the “Promiscuity Index” value is reported as 2 out of 45.

With `CCOc1ccc(Br)cc1C1C2=C(CCCC2=O)N(CC(=O)O)C2=C1C(=O)CCC2` [SR-01000476712-1], the “Promiscuity Index” value was 1 out of 45. For `CC1=C(C(=O)OCc2ccccc2)C(c2cn(-c3ccccc3)nc2-c2ccc(F)cc2)C(C(=O)OCc2ccccc2)=C(C)N1` [SR-01000425637-1] the value was 1 out of 45; for `CC(=O)Nc1ccc(NC(=O)Cn2cnc3c(cnn3C(C)(C)C)c2=O)cc1` [SR-01000137195-1], 1 out of 45. As to `CC(=O)NCC(c1cccs1)S(=O)(=O)c1ccc(C)cc1` (stereo not shown) [SR-01000023077-1], the “Promiscuity Index” value is 2 out of 45. For the molecule `Cc1ccc2nc(SCC(=O)Nc3ncc(C)s3)c(C#N)cc2c1` [SR-01000340506-1], the “Promiscuity Index” value is recorded as 3 out of 45. The result for `O=C(c1ccco1)N1CCN(c2ncc(-c3ccccc3CO)n3ccnc23)CC1` [SR-01000381408-1] reads 1 out of 46. Take `CCSCCOC(=O)C1=C(C)NC2=C(C(=O)CC(c3ccccc3)C2)C1c1ccc(OC)cc1OC` (stereo not shown) [SR-01000425645-1]: the “Promiscuity Index” value is recorded as 1 out of 45. In the case of `COc1cccc(/C=N/c2ccc3[nH]ncc3c2)c1O` [SR-01000359514-1], the “Promiscuity Index” value is reported as 3 out of 45. In the case of `COc1ccc(SCC(=O)NNC(=S)Nc2ccccc2)cc1` [SR-01000526835-1], the “Promiscuity Index” value is 2 out of 45. For `CN(C)CCN(C)c1nc([C@H](N)Cc2cccc(F)c2)cc2ccc(-c3cn[nH]c3)cc12.O=C(O)C(F)(F)F` [SR-00000006284-1] the value was 2 out of 36; for `CCN(CC)c1ccc2c(c1)OC(N)=C(C#N)C2c1ccccc1` (stereo not shown) [SR-01000320053-1], 7 out of 45; for `Cc1cccc(N2CCN(C(=O)CCc3nc(C4=CCN(C)CC4)no3)CC2C)c1` (stereo not shown) [SR-01000140019-1], 4 out of 45.

With `CC1=C(C(=O)OC2CCCCC2)C(c2ccc(F)cc2)C2=C(CC(c3ccccc3)CC2=O)N1` (stereo not shown) [SR-01000420805-1], the “Promiscuity Index” value is reported as 2 out of 45. For `CC1=C(C(=O)OCCc2ccccc2)C(c2ccc(Cl)cc2Cl)C2=C(CC(C)(C)CC2=O)N1` (stereo not shown) [SR-01000419178-1] the value was 1 out of 45. For `Cc1ccc(-c2cccc3cnc(Nc4ccc(-n5cnc(-c6ccccn6)n5)cc4)nc23)cn1.O=C(O)C(F)(F)F` [SR-00000008492-1] the value was 1 out of 36; for `CC(C)(C)OC(=O)N/N=C\c1cccs1` [SR-01000110457-1], 1 out of 45; for `O=C(NCCCN1CCc2ccccc2C1)Nc1ccc(Br)cc1` [SR-01000123578-1], 3 out of 45.

These data come from patent US20210047278A1, “E3 UBIQUITIN LIGASE AGONISTS, PHARMACEUTICAL COMPOSITIONS INCLUDING THE E3 UBIQUITIN LIGASE AGONISTS, RELATED METHODS OF USE” (FRED HUTCHINSON CANCER RESEARCH CENTER, priority 2018, published 2021).
